From ChEMBL document CHEMBL3988442, “University of Dundee, Small-Polar-MMV Screening Library” (2021).

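Viability assay of Plasmodium falciparum sporozoites; the read-out is not stated. The concentration is filed as 10 mM, unlikely as a test dose, so the dose is not known. The record gives no direction; compounds that gave an IC50 in retests scored well above the rest, so higher reads as lower viability. Strong results were mostly tested again. About 34,000 compounds were tested under these conditions; 0.84% (about 280) showed 50% or more at least once.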

Values are the deposited “Percent Effect”, in %.
The record does not define 0% and 100%; most values in the screen are far below 50% and negative numbers occur (in some assays of this library far below -100).
This is an unselected part of the compounds tested.
Two or more numbers in one place are separate tests of the same structure; such repeats can differ widely.

CC[C@H]1NCCC[C@]12CCC(=O)N2Cc1ccncc1 read -0.9887%. With CC(=O)NCCn1ccc(-c2ccccn2)n1 the screen gave -0.9848%. Result for CC(=O)NC1CCCN(C(=O)NCc2cccnc2-n2cccn2)C1 (stereo unspecified) was 4.657%. For CN(C)S(=O)(=O)c1ccc2c(c1)N(Cc1ccccn1)CCC2 the result was 2.738%. With O=C(c1cnc(O)c(Cl)c1)N1CCCC(c2nccs2)C1 (stereo unspecified) the screen gave 2.201%. For [H][C@@]12CCCO[C@]1([H])[C@@H](OCC1CC1)CN2C(=O)c1occc1C the result was -14.48%. Result for O=S(=O)(c1ccccc1F)N1CCCCC1c1cc[nH]n1 (stereo unspecified) was -0.5021%.

O=S1(=O)CCN2C(=N1)Oc1ccc(S(=O)(=O)N3CCCC3)cc12 gave -1.726%. Result for COCCC(=O)N1CCC2(CCN(Cc3ccc(C)cc3)CC2)C1.O=C(O)C(F)(F)F was 3.559%. Result for CN(C)c1ncc2c(n1)N(C)CCN(CC1CC1)C2=O was 9.738%. CCn1cnnc1CNC(=O)N(C)C(C)c1cccs1 (stereo unspecified) read 10.99%. With Cc1cc(C)c(CNC(=O)N(C)Cc2cccc(C#N)c2)c(=O)[nH]1 the screen gave -10.14%. With Cc1cnn(CC2CCCN2C(=O)CCc2nc3ccccc3[nH]2)c1 (stereo unspecified) the screen gave -5.839%. For COc1ccccc1C(C)NC(=O)N1CCC(n2cncn2)CC1 (stereo unspecified) the result was 4.129%.

Result for CC(=O)NCC(=O)NC1CCc2nccn2C1 (stereo unspecified) was -16.91%. Result for Cc1cc(N2CCC(Cc3cccnc3)CC2)ncn1 was 3.836%. With Cc1cccc(CNc2cc(C3CCCNC3)ccn2)n1.Cl (stereo unspecified) the screen gave 12.75%. Result for COc1ccc(C(=O)N2CC(=O)N(C3CCC3)CC(O)C2)c(OC)c1 (stereo unspecified) was -28.07%. With Cc1cnc(N2CCn3c(CN4CCOCC4)nnc3C2)nc1.O=C(O)C(F)(F)F the screen gave -10.83%. For O=C(O)c1cccc(CN2CCCC(Cc3ccn[nH]3)C2)c1 (stereo unspecified) the result was 3.949%. CCOc1ccc(C(=O)N2CCCC2c2c(C)nn(C)c2OC)cn1 (stereo unspecified) read -5.604%.

CC(=O)Nc1nc(C(=O)N2CCCC(n3ccnc3)C2)cs1 (stereo unspecified) gave -32.11% and 4.645% and -30.82%. With CC(C)c1noc(C(C)N2CCN(CCCN3CCCC3=O)CC2)n1 (stereo unspecified) the screen gave -4.168%. CCn1cnnc1CNC(=O)C1CCCN(Cc2cccc(F)c2)C1 (stereo unspecified) read -4.061%. CCc1ncc2c(n1)CN(C(C)C(=O)Nc1ccc(Cl)cn1)CC2 (stereo unspecified) read 5.981%. Result for CCCN1CCC(c2cc(CCOc3ccc(C(F)(F)F)cc3)[nH]n2)C1 (stereo unspecified) was 13.19%. CNc1cccc(C2CN(C(=O)CNS(C)(=O)=O)CCO2)n1 (stereo unspecified) read 2.238%. With CN(Cc1cccc(F)c1)C(=O)CN1CCOC(Cn2cncn2)C1 (stereo unspecified) the screen gave 3.319%.

With Cc1cc(CC(=O)NC2CCCN(c3ccccc3F)C2=O)n[nH]1 (stereo unspecified) the screen gave -3.402%. N#Cc1ccccc1N1CCCN(C(=O)CCc2ccco2)CC1 read 16.36%. With Cc1cc(S(=O)(=O)N2CCCc3ccc(F)cc32)sc1C(=O)O the screen gave 18.88%. For CC(NC(=O)NCCOc1ccc(F)c(F)c1)c1nncn1C (stereo unspecified) the result was -6.705%. CC(NC(=O)NCc1c(F)cccc1Cl)(C(=O)O)c1ccco1 (stereo unspecified) read -3.142%. CNC(=O)CN1CCOCC12CCN(CCc1ccccc1)CC2.O=C(O)C(F)(F)F.O=C(O)C(F)(F)F read -5.351%. With CN(C)C(=O)N1CCC2(CC(=O)N(c3cccc(C#N)c3)C2)C1 (stereo unspecified) the screen gave -11.68%.

Some entries from above, unchanged:

* CN(C)c1ncc2c(n1)N(C)CCN(CC1CC1)C2=O | 9.738%
* COc1ccccc1C(C)NC(=O)N1CCC(n2cncn2)CC1 (stereo unspecified) | 4.129%
* [H][C@@]12CCCO[C@]1([H])[C@@H](OCC1CC1)CN2C(=O)c1occc1C | -14.48%